Data from paper doi:10.1101/2025.10.01.678329.
Where two headings read alike, the source gives them in different places. These are yes or no findings as the source states them, for the method shown. In cells and extracts the contact can be indirect. Some entries that bind do so weakly or less than the wild type. For some of these results: Sequences can lack the tags named with a protein.

The chains behind the UniProt entries cited, without tags or fusion partners.
UniProt Q7Z2W4: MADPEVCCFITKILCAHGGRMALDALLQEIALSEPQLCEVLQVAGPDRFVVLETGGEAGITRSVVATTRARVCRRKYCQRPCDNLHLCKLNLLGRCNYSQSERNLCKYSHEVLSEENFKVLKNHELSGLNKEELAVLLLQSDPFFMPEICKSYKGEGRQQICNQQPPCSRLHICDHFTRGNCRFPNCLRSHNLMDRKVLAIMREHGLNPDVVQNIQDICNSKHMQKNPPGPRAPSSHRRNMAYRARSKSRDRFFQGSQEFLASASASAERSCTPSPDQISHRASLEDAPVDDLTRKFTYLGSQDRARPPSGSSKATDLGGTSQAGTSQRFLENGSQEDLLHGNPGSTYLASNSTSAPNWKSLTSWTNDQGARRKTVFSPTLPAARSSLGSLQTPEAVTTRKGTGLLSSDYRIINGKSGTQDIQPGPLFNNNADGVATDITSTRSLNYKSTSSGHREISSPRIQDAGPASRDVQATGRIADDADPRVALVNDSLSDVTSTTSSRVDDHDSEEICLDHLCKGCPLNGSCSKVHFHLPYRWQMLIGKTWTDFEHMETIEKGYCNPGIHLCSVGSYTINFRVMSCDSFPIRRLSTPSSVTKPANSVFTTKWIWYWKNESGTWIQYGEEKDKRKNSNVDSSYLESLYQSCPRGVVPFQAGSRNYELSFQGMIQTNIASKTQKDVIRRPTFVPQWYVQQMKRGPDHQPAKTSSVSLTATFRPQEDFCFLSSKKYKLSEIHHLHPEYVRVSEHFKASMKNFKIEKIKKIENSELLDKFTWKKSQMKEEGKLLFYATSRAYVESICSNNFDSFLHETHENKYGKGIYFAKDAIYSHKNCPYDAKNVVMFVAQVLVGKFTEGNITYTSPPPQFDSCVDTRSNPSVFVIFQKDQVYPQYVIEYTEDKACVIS

Columns and labels:
Experiment in all cases: co-IP
ZAP-L-FLAG (human) [1] = biological target: ZAP-L-FLAG (human) (UniProt Q7Z2W4)
RIG-I-FLAG (human) = biological target: T1, RIG-I-FLAG (human) (UniProt O95786)
T1 sequence: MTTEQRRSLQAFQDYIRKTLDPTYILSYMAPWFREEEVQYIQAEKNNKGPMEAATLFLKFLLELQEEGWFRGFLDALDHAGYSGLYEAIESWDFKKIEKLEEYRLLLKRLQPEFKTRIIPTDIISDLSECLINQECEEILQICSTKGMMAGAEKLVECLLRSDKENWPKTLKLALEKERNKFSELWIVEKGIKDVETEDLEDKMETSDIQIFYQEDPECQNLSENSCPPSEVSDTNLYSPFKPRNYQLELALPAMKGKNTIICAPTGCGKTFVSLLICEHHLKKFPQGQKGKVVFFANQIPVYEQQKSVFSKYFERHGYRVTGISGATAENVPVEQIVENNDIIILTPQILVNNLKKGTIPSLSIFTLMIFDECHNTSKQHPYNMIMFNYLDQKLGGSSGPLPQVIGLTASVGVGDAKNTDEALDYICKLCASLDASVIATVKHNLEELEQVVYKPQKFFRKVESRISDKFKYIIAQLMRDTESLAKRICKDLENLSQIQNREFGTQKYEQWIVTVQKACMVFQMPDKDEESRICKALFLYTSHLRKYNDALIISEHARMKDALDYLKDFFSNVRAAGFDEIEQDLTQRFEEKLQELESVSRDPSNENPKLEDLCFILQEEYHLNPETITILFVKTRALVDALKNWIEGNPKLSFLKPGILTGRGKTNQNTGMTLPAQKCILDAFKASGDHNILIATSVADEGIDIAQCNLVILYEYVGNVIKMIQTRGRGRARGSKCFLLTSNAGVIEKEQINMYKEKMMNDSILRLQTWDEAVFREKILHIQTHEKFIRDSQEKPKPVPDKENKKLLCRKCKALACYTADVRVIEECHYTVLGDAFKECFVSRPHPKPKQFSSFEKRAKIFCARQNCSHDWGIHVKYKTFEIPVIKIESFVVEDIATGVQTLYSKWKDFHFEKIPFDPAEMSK

ZAP-L-FLAG (human) [2] = biological target: ZAP-L-FLAG (human) (UniProt Q7Z2W4); remark: listed apart in the source
[3] = biological target: T2, 2'-5'-oligoadenylate synthetase 2 (OAS2)-FLAG (human) (UniProt P29728)
T2 sequence: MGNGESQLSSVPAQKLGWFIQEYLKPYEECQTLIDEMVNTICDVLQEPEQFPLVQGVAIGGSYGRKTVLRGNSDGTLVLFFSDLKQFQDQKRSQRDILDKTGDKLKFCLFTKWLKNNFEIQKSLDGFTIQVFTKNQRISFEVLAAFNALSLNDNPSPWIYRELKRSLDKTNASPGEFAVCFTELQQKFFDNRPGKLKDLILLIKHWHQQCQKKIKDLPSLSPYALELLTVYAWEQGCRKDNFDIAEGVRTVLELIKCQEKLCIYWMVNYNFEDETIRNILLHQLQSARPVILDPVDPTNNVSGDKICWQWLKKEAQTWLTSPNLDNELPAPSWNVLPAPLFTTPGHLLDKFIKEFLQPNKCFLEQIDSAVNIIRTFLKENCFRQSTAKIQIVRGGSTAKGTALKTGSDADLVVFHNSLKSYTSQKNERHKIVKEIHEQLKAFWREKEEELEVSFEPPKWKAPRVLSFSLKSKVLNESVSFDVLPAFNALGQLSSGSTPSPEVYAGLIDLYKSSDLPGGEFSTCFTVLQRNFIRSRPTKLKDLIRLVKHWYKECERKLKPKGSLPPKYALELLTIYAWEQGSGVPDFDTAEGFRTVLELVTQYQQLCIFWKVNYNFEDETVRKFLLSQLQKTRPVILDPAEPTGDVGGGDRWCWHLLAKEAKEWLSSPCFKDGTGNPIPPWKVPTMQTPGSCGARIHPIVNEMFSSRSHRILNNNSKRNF

[4] = biological target: T3, 2'-5'-oligoadenylate synthetase 1 (OAS1)-FLAG (human) (UniProt P00973)
T3 sequence: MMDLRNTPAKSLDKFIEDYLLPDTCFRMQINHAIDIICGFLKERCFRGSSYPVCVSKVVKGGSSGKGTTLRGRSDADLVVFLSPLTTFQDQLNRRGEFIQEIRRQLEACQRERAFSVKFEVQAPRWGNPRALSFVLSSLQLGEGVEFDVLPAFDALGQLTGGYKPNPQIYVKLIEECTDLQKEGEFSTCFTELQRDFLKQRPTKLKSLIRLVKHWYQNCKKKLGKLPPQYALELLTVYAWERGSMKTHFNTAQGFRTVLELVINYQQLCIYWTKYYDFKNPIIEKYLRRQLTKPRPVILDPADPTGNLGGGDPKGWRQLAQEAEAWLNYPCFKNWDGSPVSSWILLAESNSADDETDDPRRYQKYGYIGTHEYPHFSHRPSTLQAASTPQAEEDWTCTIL

[5] = biological target: T4, mouse RIG-I (mouse (Mus musculus)) (UniProt Q6Q899)
T4 sequence: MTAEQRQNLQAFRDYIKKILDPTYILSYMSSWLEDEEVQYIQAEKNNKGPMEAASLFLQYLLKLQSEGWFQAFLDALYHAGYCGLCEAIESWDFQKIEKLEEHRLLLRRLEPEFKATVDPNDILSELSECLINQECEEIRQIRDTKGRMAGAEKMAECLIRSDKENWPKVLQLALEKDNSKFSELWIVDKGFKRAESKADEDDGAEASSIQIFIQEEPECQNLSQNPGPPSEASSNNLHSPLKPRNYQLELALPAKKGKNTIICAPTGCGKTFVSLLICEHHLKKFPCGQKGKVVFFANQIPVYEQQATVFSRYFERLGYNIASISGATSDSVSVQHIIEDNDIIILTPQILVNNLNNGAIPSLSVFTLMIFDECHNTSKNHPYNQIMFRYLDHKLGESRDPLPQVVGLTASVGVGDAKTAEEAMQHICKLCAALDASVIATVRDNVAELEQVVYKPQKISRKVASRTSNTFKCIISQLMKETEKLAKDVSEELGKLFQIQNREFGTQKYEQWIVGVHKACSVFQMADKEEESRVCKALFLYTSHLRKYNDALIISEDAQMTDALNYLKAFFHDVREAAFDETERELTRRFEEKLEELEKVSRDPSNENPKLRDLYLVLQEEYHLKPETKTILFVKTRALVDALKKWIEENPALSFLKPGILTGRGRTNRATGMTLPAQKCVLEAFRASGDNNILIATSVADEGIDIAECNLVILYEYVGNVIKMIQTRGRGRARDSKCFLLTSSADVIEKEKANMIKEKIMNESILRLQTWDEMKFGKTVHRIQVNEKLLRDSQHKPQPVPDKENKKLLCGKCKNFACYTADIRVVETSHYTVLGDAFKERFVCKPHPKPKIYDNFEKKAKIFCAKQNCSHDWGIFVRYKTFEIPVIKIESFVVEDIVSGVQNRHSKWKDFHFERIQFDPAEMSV

B1: Riplet-HA (enzyme, UniProt Q8IUD6 1-432)
chain: MAGLGLGSAVPVWLAEDDLGCIICQGLLDWPATLPCGHSFCRHCLEALWGARDARRWACPTCRQGAAQQPHLRKNTLLQDLADKYRRAAREIQAGSDPAHCPCPGSSSLSSAAARPRRRPELQRVAVEKSITEVAQELTELVEHLVDIVRSLQNQRPLSESGPDNELSILGKAFSSGVDLSMASPKLVTSDTAAGKIRDILHDLEEIQEKLQESVTWKEAPEAQMQGELLEAPSSSSCPLPDQSHPALRRASRFAQWAIHPTFNLKSLSCSLEVSKDSRTVTVSHRPQPYRWSCERFSTSQVLCSQALSSGKHYWEVDTRNCSHWAVGVASWEMSRDQVLGRTMDSCCVEWKGTSQLSAWHMVKETVLGSDRPGVVGIWLNLEEGKLAFYSVDNQEKLLYECTISASSPLYPAFWLYGLHPGNYLIIKQVKV
- binding (ZAP-L-FLAG (human) [1]): no binding
- binding (RIG-I-FLAG (human)): binds
- binding (ZAP-L-FLAG (human) [2]): no binding
- binding [3]: binds

B2: OASL (protein, UniProt Q15646 1-514)
chain: MALMQELYSTPASRLDSFVAQWLQPHREWKEEVLDAVRTVEEFLRQEHFQGKRGLDQDVRVLKVVKVGSFGNGTVLRSTREVELVAFLSCFHSFQEAAKHHKDVLRLIWKTMWQSQDLLDLGLEDLRMEQRVPDALVFTIQTRGTAEPITVTIVPAYRALGPSLPNSQPPPEVYVSLIKACGGPGNFCPSFSELQRNFVKHRPTKLKSLLRLVKHWYQQYVKARSPRANLPPLYALELLTIYAWEMGTEEDENFMLDEGFTTVMDLLLEYEVICIYWTKYYTLHNAIIEDCVRKQLKKERPIILDPADPTLNVAEGYRWDIVAQRASQCLKQDCCYDNRENPISSWNVKRARDIHLTVEQRGYPDFNLIVNPYEPIRKVKEKIRRTRGYSGLQRLSFQVPGSERQLLSSRCSLAKYGIFSHTHIYLLETIPSEIQVFVKNPDGGSYAYAINPNSFILGLKQQIEDQQGLPKKQQQLEFQGQVLQDWLGLGIYGIQDSDTLILSKKKGEALFPAS
- binding (ZAP-L-FLAG (human) [2]): binds

B3: TRIM58 C57S C60S (enzyme, UniProt Q8NG06 1-486)
chain: MAWAPPGERLREDARCPVCLDFLQEPVSVDCGHSFCLRCISEFCEKSDGAQGGVYASPQSRGPFRPSGFRPNRQLAGLVESVRRLGLGAGPGARRCARHGEDLSRFCEEDEAALCWVCDAGPEHRTHRTAPLQEAAGSYQVKLQMALELMRKELEDALTQEANVGKKTVIWKEKVEMQRQRFRLEFEKHRGFLAQEEQRQLRRLEAEERATLQRLRESKSRLVQQSKALKELADELQERCQRPALGLLEGVRGVLSRSKAVTRLEAENIPMELKTACCIPGRRELLRKFQVDVKLDPATAHPSLLLTADLRSVQDGEPWRDVPNNPERFDTWPCILGLQSFSSGRHYWEVLVGEGAEWGLGVCQDTLPRKGETTPSPENGVWALWLLKGNEYMVLASPSVPLLQLESPRCIGIFLDYEAGEISFYNVTDGSYIYTFNQLFSGLLRPYFFICDATPLILPPTTIAGSGNWASRDHLDPASDVRDDHL
- binding [4]: binds

B4: mouse Riplet (enzyme, UniProt Q9CWS1 1-417)
chain: MAAVCSGNAVPVWLSEDDLSCIICQGLLDQPTTLPCGHSFCLRCLHDLWVSKRGAVDGCPWACPICRKGPLTKPKLHKNPLLQDLVDKYLQAAREVEAGSEPEPAPAPRSAPQVTVQKSTTNVIQELTDMVRQLVDDVKSLQTQRPNLGSGQDNAQGTPPTDSSSEGEHSLDSPKLVTFSISQKKIQEILHNLEEIQEKLQGSVPGRAPPRERVQEMTSSLCLLPDQRRPAPRKASHLSLWAISPTFDLRTLSYNLEVSNNSRRVTVSRGDLHTYHWSPQRFSISQVFCSQALSSGQKYWEVDTRNCSHWAIGVASWGMKRDGMLGRTMDSWCIEWRGPGQFSAWAKMKKTDLQSDLPEVVGVWLDLESGELAFYAVADHERLLYECEVSSSSPLHPAFWLYGLSPGNYLEIKQLNT
- binding [5]: binds
